PubChem BioAssay AID328 (DTP/NCI, 2004)
The list shows only some results of the screen, not a fair sample: it gathers tests that were run many times, whatever their T/C, doses with no T/C, and many T/C values between a quarter and a half above the control. Other doses and runs of a compound stand elsewhere. T/C: endpoint of the treated group in % of that of the vehicle group. Some entries give survivors of the animals treated and no T/C: the source holds a T/C of zero for them, seemingly a mark for toxic or unscored doses. Some doses without a T/C left all or most animals alive at the check, yet need not have been tolerated: the source hardly ever lists a survival T/C far under the control, and the zero likely stands for such cases as well. Survivors were counted at the toxicity check, usually on the fifth day, unless a day is given; later deaths do not show. Schedule codes are those of the source, read here as Q, the interval in days (D) or hours (H), X, the number of doses. Some entries hold several experiments; the values are given in rising order. Additions like (4×) stand for listed records that agree. For survival time, the PubChem record calls one and a half times the control and up active, and a quarter to a half above the control has no call in these data; cut-offs in other NCI protocols can differ. Some T/C values are followed by the survivors on the day toxicity was checked, most often the fifth; without a count, all were alive then.

Tested on: BDF1 mice, P388 leukemia ip, median survival T/C
Assay: NCI In Vivo Anticancer Drug Screen. Data for tumor model P388 Leukemia (intraperitoneal) in B6D2F1 (BDF1) mice
Details: T/C endpoint: median survival time, higher T/C = longer survival
Summary of the method: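 In tumour-bearing mice, survival after compound treatment is set against the vehicle group and given as a quotient.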

[1] = dose: 2.0 mg/kg/injection, schedule: Q01DX009 (ip), vehicle: saline + alcohol

With COC(=O)[C@@]12OC[C@]34[C@H]([C@@H](O)[C@@H]1O)[C@@]1(C)CC(=O)C(O)=C(C)[C@@H]1C[C@H]3OC(=O)[C@H](OC(=O)/C=C(\C)C(C)C)[C@@H]24 the T/C (dose: 0.03 mg/kg/injection, schedule: Q01DX009 (ip), vehicle: saline with Tween-80) was 137 % of control, the T/C (dose: 0.03 mg/kg/injection, schedule: Q03HX024 (ip), vehicle: other) was 134 % of control and the T/C (dose: 0.03 mg/kg/injection, schedule: Q03HX024 (ip), vehicle: saline + alcohol) was 132 and 145 % of control. For the same compound, the T/C (dose: 0.03 mg/kg/injection, schedule: Q03HX024 (ip), vehicle: saline with Tween-80) was 126 % of control, the T/C (dose: 0.06 mg/kg/injection, schedule: Q01DX009 (ip), vehicle: saline + alcohol, evaluated on day 35) was 151 % of control and the T/C (dose: 0.06 mg/kg/injection, schedule: Q01DX009 (ip), vehicle: saline + alcohol, evaluated on day 60) was 146, 149, 156 % of control. The T/C (dose: 0.06 mg/kg/injection, schedule: Q01DX009 (ip), vehicle: saline with Tween-80, evaluated on day 30) was 149 % of control, the T/C (dose: 0.06 mg/kg/injection, schedule: Q01DX009 (ip), vehicle: saline with Tween-80, evaluated on day 60) was 143 % of control and the T/C (dose: 0.06 mg/kg/injection, schedule: Q01DX009 (ip), vehicle: saline) was 125 % of control. The T/C (dose: 0.06 mg/kg/injection, schedule: Q03HX016 (ip), vehicle: saline + alcohol) was 148 % of control, the T/C (dose: 0.06 mg/kg/injection, schedule: Q03HX016 (ip), vehicle: saline with Tween-80) was 133 % of control and the T/C (dose: 0.06 mg/kg/injection, schedule: Q03HX024 (ip), vehicle: saline with Tween-80) was 140 % of control. For the same compound, the T/C (dose: 0.12 mg/kg/injection, schedule: Q01DX009 (ip), vehicle: saline) was 133 % of control, the T/C (dose: 0.12 mg/kg/injection, schedule: Q03HX008 (ip), vehicle: saline with Tween-80) was 125 % of control and the T/C (dose: 0.12 mg/kg/injection, schedule: Q03HX016 (ip), vehicle: saline with Tween-80) was 140 % of control. The T/C (dose: 0.13 mg/kg/injection, schedule: Q03HX008 (ip), vehicle: saline + alcohol) was 146 % of control, the T/C (dose: 0.25 mg/kg/injection, schedule: Q01DX009 (ip), vehicle: saline + alcohol, evaluated on day 35) was 191 % of control and the T/C (dose: 0.25 mg/kg/injection, schedule: Q01DX009 (ip), vehicle: saline + alcohol, evaluated on day 60) was 173, 174, 176 % of control. For the same compound, the T/C (dose: 0.25 mg/kg/injection, schedule: Q01DX009 (ip), vehicle: saline) was 141 % of control, the T/C (dose: 0.25 mg/kg/injection, schedule: Q03HX008 (ip), vehicle: saline + alcohol) was 147 % of control [9 of 10 alive] and the T/C (dose: 0.25 mg/kg/injection, schedule: Q03HX008 (ip), vehicle: saline with Tween-80) was 137 % of control [9 of 10 alive]. The survivor count (dose: 0.25 mg/kg/injection, schedule: Q03HX016 (ip), vehicle: saline with Tween-80) was 2 of 10, the survivor count (dose: 0.25 mg/kg/injection, schedule: Q03HX024 (ip), vehicle: other) was 3 of 10 and the survivor count (dose: 0.25 mg/kg/injection, schedule: Q03HX024 (ip), vehicle: saline + alcohol) was 6 of 10 and 7 of 10. For the same compound, the T/C (dose: 0.5 mg/kg/injection, schedule: Q01DX009 (ip), vehicle: saline + alcohol, evaluated on day 35) was 186 % of control, the T/C (dose: 0.5 mg/kg/injection, schedule: Q01DX009 (ip), vehicle: saline + alcohol, evaluated on day 60) was 173, 177, 186 % of control and the survivor count (dose: 0.5 mg/kg/injection, schedule: Q03HX008 (ip), vehicle: saline + alcohol) was 3 of 10. For the same compound, the survivor count (dose: 0.5 mg/kg/injection, schedule: Q03HX008 (ip), vehicle: saline with Tween-80) was 0 of 10, the survivor count (dose: 0.5 mg/kg/injection, schedule: Q03HX016 (ip), vehicle: saline + alcohol) was 3 of 10 and the survivor count (dose: 0.5 mg/kg/injection, schedule: Q03HX016 (ip), vehicle: saline with Tween-80) was 0 of 10. The survivor count (dose: 0.5 mg/kg/injection, schedule: Q03HX024 (ip), vehicle: other) was 0 of 10, the survivor count (dose: 0.5 mg/kg/injection, schedule: Q03HX024 (ip), vehicle: saline + alcohol) was 0 of 10 and 3 of 10 and the survivor count (dose: 0.5 mg/kg/injection, schedule: Q03HX024 (ip), vehicle: saline with Tween-80) was 1 of 10. The T/C (dose: 1.0 mg/kg/injection, schedule: Q01DX009 (ip), vehicle: saline + alcohol, evaluated on day 35) was 204 % of control, the T/C (dose: 1.0 mg/kg/injection, schedule: Q01DX009 (ip), vehicle: saline + alcohol, evaluated on day 60) was 194, 203, 217 % of control and the T/C (dose: 1.0 mg/kg/injection, schedule: Q01DX009 (sc), vehicle: saline + alcohol) was 126 % of control. The survivor count (dose: 1.0 mg/kg/injection, schedule: Q03HX008 (ip), vehicle: saline + alcohol) was 0 of 10, the survivor count (dose: 1.0 mg/kg/injection, schedule: Q03HX008 (ip), vehicle: saline with Tween-80) was 0 of 10 and the survivor count (dose: 1.0 mg/kg/injection, schedule: Q03HX016 (ip), vehicle: saline + alcohol) was 0 of 10. The survivor count (dose: 1.0 mg/kg/injection, schedule: Q03HX016 (ip), vehicle: saline with Tween-80) was 0 of 10, the T/C (dose: 1.08 mg/kg/injection, schedule: Q04DX003 (ip), vehicle: saline + alcohol) was 148 % of control and the survivor count (dose: 2.0 mg/kg/injection, schedule: Q01DX009 (ip), vehicle: other) was 6 of 10. The T/C [1] was 198 % of control, the survivor count [1] was 6 of 10 (2×) and 8 of 10 and the survivor count (dose: 2.0 mg/kg/injection, schedule: Q01DX009 (ip), vehicle: saline with Tween-80) was 6 of 10. The survivor count (dose: 2.0 mg/kg/injection, schedule: Q01DX009 (ip), vehicle: saline) was 3 of 6, the survivor count (dose: 2.0 mg/kg/injection, schedule: Q03HX008 (ip), vehicle: saline + alcohol) was 0 of 10 and the survivor count (dose: 2.0 mg/kg/injection, schedule: Q03HX008 (ip), vehicle: saline with Tween-80) was 0 of 10. The survivor count (dose: 2.0 mg/kg/injection, schedule: Q03HX016 (ip), vehicle: saline + alcohol) was 0 of 10, the survivor count (dose: 2.0 mg/kg/injection, schedule: Q03HX016 (ip), vehicle: saline with Tween-80) was 0 of 10 and the T/C (dose: 2.0 mg/kg/injection, schedule: Q04DX003 (ip), vehicle: saline + alcohol) was 125 % of control. The T/C (dose: 2.0 mg/kg/injection, schedule: Q04DX003 (ip), vehicle: saline with Tween-80) was 126 % of control, the survivor count (dose: 2.25 mg/kg/injection, schedule: Q01DX009 (ip), vehicle: saline with Tween-80) was 6 of 10 and the survivor count (dose: 3.0 mg/kg/injection, schedule: Q04DX003 (ip), vehicle: saline + alcohol) was 4 of 8 and 5 of 8. The survivor count (dose: 3.2 mg/kg/injection, schedule: Q01DX005 (ip), vehicle: saline + alcohol) was 7 of 10, the survivor count (dose: 4.0 mg/kg/injection, schedule: Q01DX001 (ip), vehicle: saline + alcohol) was 5 of 10 and the survivor count (dose: 4.0 mg/kg/injection, schedule: Q01DX001 (ip), vehicle: saline with Tween-80) was 1 of 10. The survivor count (dose: 4.0 mg/kg/injection, schedule: Q01DX001 (sc), vehicle: saline + alcohol) was 6 of 10, the survivor count (dose: 4.0 mg/kg/injection, schedule: Q01DX009 (ip), vehicle: saline + alcohol) was 1 of 10 and the survivor count (dose: 4.0 mg/kg/injection, schedule: Q01DX009 (ip), vehicle: saline with Tween-80) was 3 of 10. The survivor count (dose: 4.0 mg/kg/injection, schedule: Q01DX009 (ip), vehicle: saline) was 0 of 6, the survivor count (dose: 4.0 mg/kg/injection, schedule: Q04DX003 (ip), vehicle: saline + alcohol) was 6 of 10 and the survivor count (dose: 4.0 mg/kg/injection, schedule: Q04DX003 (ip), vehicle: saline with Tween-80) was 0 of 10. For the same compound, the survivor count (dose: 4.0 mg/kg/injection, schedule: Q08DX002 (ip), vehicle: saline + alcohol) was 10 of 10, the survivor count (dose: 4.0 mg/kg/injection, schedule: Q08DX002 (ip), vehicle: saline with Tween-80) was 3 of 10 and the survivor count (dose: 5.0 mg/kg/injection, schedule: Q04DX003 (ip), vehicle: saline + alcohol) was 0 of 8. The survivor count (dose: 8.0 mg/kg/injection, schedule: Q01DX001 (ip), vehicle: saline + alcohol) was 0 of 10, the survivor count (dose: 8.0 mg/kg/injection, schedule: Q01DX001 (ip), vehicle: saline with Tween-80) was 0 of 10 and the survivor count (dose: 8.0 mg/kg/injection, schedule: Q01DX001 (sc), vehicle: saline + alcohol) was 0 of 10. For the same compound, the survivor count (dose: 8.0 mg/kg/injection, schedule: Q01DX009 (oral), vehicle: saline + alcohol) was 1 of 10 and 3 of 10, the survivor count (dose: 8.0 mg/kg/injection, schedule: Q08DX002 (ip), vehicle: saline + alcohol) was 0 of 10 and the survivor count (dose: 8.0 mg/kg/injection, schedule: Q08DX002 (ip), vehicle: saline with Tween-80) was 0 of 10. For the same compound, the survivor count (dose: 16.0 mg/kg/injection, schedule: Q01DX001 (ip), vehicle: saline + alcohol) was 0 of 10, the survivor count (dose: 16.0 mg/kg/injection, schedule: Q01DX001 (ip), vehicle: saline with Tween-80) was 0 of 10 and the survivor count (dose: 16.0 mg/kg/injection, schedule: Q01DX001 (oral), vehicle: saline + alcohol) was 1 of 10 and 3 of 10. The survivor count (dose: 16.0 mg/kg/injection, schedule: Q01DX001 (sc), vehicle: saline + alcohol) was 0 of 10, the survivor count (dose: 16.0 mg/kg/injection, schedule: Q08DX002 (ip), vehicle: saline + alcohol) was 0 of 10 and the survivor count (dose: 16.0 mg/kg/injection, schedule: Q08DX002 (ip), vehicle: saline with Tween-80) was 0 of 10. For the same compound, the T/C (dose: 11.2 micrograms/kg/injection, schedule: Q01DX009 (ip), vehicle: saline + alcohol) was 135 % of control, the T/C (dose: 22.5 micrograms/kg/injection, schedule: Q01DX009 (ip), vehicle: saline + alcohol) was 140 % of control and the T/C (dose: 648.0 micrograms/kg/injection, schedule: Q01DX004 (ip), vehicle: saline + alcohol) was 140 % of control [6 of 8 alive]. The survivor count (dose: 1080.0 micrograms/kg/injection, schedule: Q01DX004 (ip), vehicle: saline + alcohol) was 2 of 8, the survivor count (dose: 1800.0 micrograms/kg/injection, schedule: Q01DX004 (ip), vehicle: saline + alcohol) was 1 of 8 and the survivor count (dose: 2000.0 micrograms/kg/injection, schedule: Q01DX009 (ip), vehicle: saline + alcohol) was 3 of 8.
